PMC7819943, “Rice protein-binding microarrays: a tool to detect cis-acting elements near promoter regions in rice”
The other results are listed elsewhere or left out.

These sequences were tested against T1, OsSMF1 (Oryza sativa, UniProt Q6ZLB0 1-436) (assay: protein-binding microarray (RPBM); PBS, 2% BSA, 51.3 ng/ul salmon testes DNA, 50 uM zinc acetate, 200 nM TF, 25 C, 1 h; high values mean tight binding). Conditions: protein: recombinant; tags: N-terminal polyhistidine and DsRed monomer fusion (pET32a); chain copies: 2; label: CyDye5-dUTP incorporated in the synthesized complementary strand; 3' TTTTT single-stranded linker to array surface; dsDNA, one strand shown.
T1 sequence: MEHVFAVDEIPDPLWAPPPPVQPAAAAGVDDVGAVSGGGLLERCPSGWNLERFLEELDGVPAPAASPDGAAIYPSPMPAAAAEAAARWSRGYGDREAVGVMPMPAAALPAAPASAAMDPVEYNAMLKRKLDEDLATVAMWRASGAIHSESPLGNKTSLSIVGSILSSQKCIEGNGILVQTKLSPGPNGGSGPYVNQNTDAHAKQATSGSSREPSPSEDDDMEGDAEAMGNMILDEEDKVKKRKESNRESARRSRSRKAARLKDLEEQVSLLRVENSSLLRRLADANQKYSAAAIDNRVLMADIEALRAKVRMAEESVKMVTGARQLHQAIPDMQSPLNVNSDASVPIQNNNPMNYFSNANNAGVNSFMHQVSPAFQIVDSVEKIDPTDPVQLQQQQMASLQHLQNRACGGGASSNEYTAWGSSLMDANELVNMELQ
Outline: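 Transcription factors were each fused at the N-terminus to a polyhistidine tag plus DsRed and expressed in E. coli BL21-CodonPlus before Ni–NTA purification. Binding to a double-stranded custom Agilent array was carried out with 200 nM protein at 25 °C for 1 h in PBS, 2% BSA, salmon testes DNA and 50 µM zinc acetate. The binding signal is per-feature fluorescence intensity, in arbitrary units, on an Axon 4000B scanner.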

Row | Sequence | binding signal
1 | TCATAACTAATATTTAAATGGTATTTGAACATCCCATGGACGGAGTCACCTAGTGCAG | 24500 fluorescence intensity (a.u.)
2 | AGATAGATAGAGAGAGAGAAGGGAAAGGGAAGAGAGAGAGCGGAGTCACCTAGTGCAG | 17800 fluorescence intensity (a.u.)
3 | GAATTACAAGGATGGTAAGGTTTGGTCTTTCAAAGTCTTACGGAGTCACCTAGTGCAG | 40100 fluorescence intensity (a.u.)
4 | ATTAGGTGGCTTTACTCTTCCGCCTGCGTGGCTGCCTGCCCGGAGTCACCTAGTGCAG | 4710 fluorescence intensity (a.u.)
5 | ACTTACCTATTTAATGACGGGGACTACTACTTGTGGATGGCGGAGTCACCTAGTGCAG | 5300 fluorescence intensity (a.u.)
6 | TCATTTAACAAACGTCTTAAACAGGGAAACCGCATATGCACGGAGTCACCTAGTGCAG | 29500 fluorescence intensity (a.u.)
7 | GTGGTACGCCGTGCGCCCGCGCCACCTCACCTCCGCCGAGCGGAGTCACCTAGTGCAG | 8240 fluorescence intensity (a.u.)
8 | CCTCCACCTCATCGTCCTCCTCCTCCGCTTCGCATTTCCTCGGAGTCACCTAGTGCAG | 5420 fluorescence intensity (a.u.)
9 | TGTCACCACAGCTCACGAGAGGTGTCAGCCATTGTGGTTGCGGAGTCACCTAGTGCAG | 4150 fluorescence intensity (a.u.)
10 | ATGTTTGAATGCATTCTTTCATCACCAAGGCGTGGCACCTCGGAGTCACCTAGTGCAG | 4270 fluorescence intensity (a.u.)
11 | TCTCCGTCGCCGTAAGATGGTGTCGTCCATGTGAATGAACCGGAGTCACCTAGTGCAG | 3210 fluorescence intensity (a.u.)
12 | GGCAACGCGCAGGTGACGCCGCTGCACGTGGCGAGCGCGACGGAGTCACCTAGTGCAG | 10200 fluorescence intensity (a.u.)
13 | GATGGAGACCCTGTGCGAACTGACAGTAATAGGGCTGGAACGGAGTCACCTAGTGCAG | 39400 fluorescence intensity (a.u.)
14 | TCTTGACATGGTTGCATATGTCAGTGACTTCGGTTCAGCACGGAGTCACCTAGTGCAG | 3210 fluorescence intensity (a.u.)
15 | GGCCGTGGCGTAGCCGGCCGCCGCCGCGGTGGACGCGTTGCGGAGTCACCTAGTGCAG | 3180 fluorescence intensity (a.u.)
16 | TGTGTTTGATGTGATGATGTCCTCATTTACTATCAGTGGTCGGAGTCACCTAGTGCAG | 4340 fluorescence intensity (a.u.)
17 | TACCCGGCGCCCTACAGCGACGGACGGACGGACGGCGTCACGGAGTCACCTAGTGCAG | 24600 fluorescence intensity (a.u.)
18 | CAGCGGTGAACCTGAGCGAGCGGATTTCGGCGTACGTGGCCGGAGTCACCTAGTGCAG | 4050 fluorescence intensity (a.u.)
19 | ATATGGTTAGAGCAATGACTTGGACTAGTGAGTCTTCCATCGGAGTCACCTAGTGCAG | 4860 fluorescence intensity (a.u.)
20 | AACTTAATACGTAAACAATGTCAAATCGTCATCTCCACATCGGAGTCACCTAGTGCAG | 3250 fluorescence intensity (a.u.)
21 | CTCCCATCTCCATCTCCCATCTCGCCTCAGCGAACTCCCCCGGAGTCACCTAGTGCAG | 25800 fluorescence intensity (a.u.)

A second format for some results above:
Row	Sequence	binding signal
14	TCTTGACATGGTTGCATATGTCAGTGACTTCGGTTCAGCACGGAGTCACCTAGTGCAG	3210 fluorescence intensity (a.u.)
16	TGTGTTTGATGTGATGATGTCCTCATTTACTATCAGTGGTCGGAGTCACCTAGTGCAG	4340 fluorescence intensity (a.u.)

Additional results follow:

Row | Sequence | binding signal
22 | AGTACTATATTGCGACGTGTACATGTGTTTGTTTAAGCCTCGGAGTCACCTAGTGCAG | 5890 fluorescence intensity (a.u.)
23 | CACACACGCACACACACGACACGACAGCTTCGTGCTCAAGCGGAGTCACCTAGTGCAG | 4150 fluorescence intensity (a.u.)
24 | GTCGAGTGAATTATAGGCGAACGTCTGACAAAGCAGTGACCGGAGTCACCTAGTGCAG | 3510 fluorescence intensity (a.u.)
25 | ATGTATGGGCATATGCCTCTTGTAGCCACCACAGTCAAAGCGGAGTCACCTAGTGCAG | 3320 fluorescence intensity (a.u.)
26 | AGGGGCCACACCGACCCTCCACGTCATCGTCCACGTCACCCGGAGTCACCTAGTGCAG | 40900 fluorescence intensity (a.u.)
27 | CTACTGAAGCCAGCAAAGTTCAACAACATGACACAGTAGCCGGAGTCACCTAGTGCAG | 3440 fluorescence intensity (a.u.)
28 | CAGCCGCGGCCGCACGGCCGCACAGAGAGGTTATTCGATTCGGAGTCACCTAGTGCAG | 3330 fluorescence intensity (a.u.)
29 | ATGGATAGTAACTGCATGCCGGAGACACCGTATCATTGTACGGAGTCACCTAGTGCAG | 3220 fluorescence intensity (a.u.)
30 | TGCAGCCTTCTTGTCCTCCTGTTCGTCAACAGCATCAGCACGGAGTCACCTAGTGCAG | 4550 fluorescence intensity (a.u.)
31 | GAAGATCCCCACGAGCGTGAGGTAGTAGGCAAGCACGTGGCGGAGTCACCTAGTGCAG | 4220 fluorescence intensity (a.u.)
32 | GCCGTCCACTGTTCCTCGCCGGTGCACTGGCTGACGTCGCCGGAGTCACCTAGTGCAG | 5580 fluorescence intensity (a.u.)
33 | CGTCACAAGCCGTTAATGACACATCAGCAGGCACGCTCCACGGAGTCACCTAGTGCAG | 12000 fluorescence intensity (a.u.)
34 | TAAGGGACCACCTATATGTTTGTCGATAAATTTTCTCCTACGGAGTCACCTAGTGCAG | 3370 fluorescence intensity (a.u.)
35 | TTAATAGTATAGTAAGCAATTGTTGTATGAATTGGCTATTCGGAGTCACCTAGTGCAG | 27200 fluorescence intensity (a.u.)
36 | CTCGGTCAAGTTCCCGTTACAAAATGACTCAACCACATCGCGGAGTCACCTAGTGCAG | 6260 fluorescence intensity (a.u.)
37 | CGCCACCGCGCTCGCCCGCTGACGCCGCCTCGCCCTGCCGCGGAGTCACCTAGTGCAG | 5400 fluorescence intensity (a.u.)
38 | CCCACGAGCGTATCGTAGCTGACGCTTCGTCTTGACGCCGCGGAGTCACCTAGTGCAG | 4290 fluorescence intensity (a.u.)
39 | TTTGGGCTGCAATTCTGTTTGTCCTAGGTTGCATATGCTTCGGAGTCACCTAGTGCAG | 17300 fluorescence intensity (a.u.)
40 | GTGTGCACCTAAGAATTTCTCCGGTGGATGATGTATGATGCGGAGTCACCTAGTGCAG | 3650 fluorescence intensity (a.u.)
41 | TTTCGACCACCTTCATGGTCCATCCACATCATCCTTCTCACGGAGTCACCTAGTGCAG | 8240 fluorescence intensity (a.u.)
42 | GGTAGAGCTTCAACTTTGATCCGTTGGTGTCATAACGTGTCGGAGTCACCTAGTGCAG | 3470 fluorescence intensity (a.u.)
